Experimental data reported in PubChem BioAssay AID248 (DTP/NCI, 2004).
The list is a part of this screen's results and no random one: it is rich in T/C values a quarter to a half above the control, in often repeated tests (any T/C) and in doses without a T/C. Further doses and runs are listed elsewhere. T/C: endpoint of the treated group in % of that of the vehicle group. Some doses have a count of surviving animals in place of a T/C: the source holds a T/C of zero for them, seemingly a mark for toxic or unscored doses. Some doses without a T/C left all or most animals alive at the check, yet need not have been tolerated: the source hardly ever lists a survival T/C far under the control, and the zero likely stands for such cases as well. Counts of survivors are from the toxicity check (mostly the fifth day) where no day follows; animals may have died later. Schedule codes are those of the source, taken here to give the interval after Q, in days (D) or hours (H), and the number of doses after X. Some doses were run more than once; the values are given in rising order. Some schedules carry Z or #; the key to these is not given. Where survival is the endpoint, this PubChem deposit counts one and a half times the control or more as active, and values a quarter to a half above the control carry no call in these data; other NCI protocols may use other cut-offs. Additions like (4×) stand for listed records that agree.

Test system: L1210 leukemia ip in BDF1 mice, survival T/C
Assay: NCI In Vivo Anticancer Drug Screen. Data for tumor model L1210 Leukemia (intraperitoneal) in B6D2F1 (BDF1) mice
Settings: T/C endpoint: mean survival time, higher T/C = longer survival
[1] = dose: 100.0 mg/kg/injection, schedule: Q01DX001 (ip), vehicle: saline
[2] = dose: 400.0 mg/kg/injection, schedule: Q01DX001 (ip), vehicle: saline
[3] = dose: 400.0 mg/kg/injection, schedule: Q01DX009 (ip), vehicle: saline with Tween-80
[4] = dose: 100.0 mg/kg/injection, schedule: Q01DX009 (ip), vehicle: saline with Tween-80
[5] = dose: 400.0 mg/kg/injection, schedule: Q04DX003 (ip), vehicle: saline
[6] = dose: 400.0 mg/kg/injection, schedule: Q01DX009 (ip), vehicle: Klucel (hydroxypropylcellulose) (HPC)
[7] = dose: 400.0 mg/kg/injection, schedule: Q04DX002 (ip), vehicle: saline

In the case of `ClCCN(CCCl)CCCNc1cc(-c2ccc(Cl)cc2)nc2cc(Cl)ccc12`, the survivor count [1] is reported as 2 of 4 and the survivor count [2] is reported as 0 of 4.

In the case of `NCCOCCOCCN`, the survivor count (dose: 200.0 mg/kg/injection, schedule: Q01DX009 (ip), vehicle: saline) is reported as 0 of 3.

`O=C(NCc1cnccn1)c1ccco1` was tested, and the survivor count (dose: 400.0 mg/kg/injection, schedule: Q01DX005 (ip), vehicle: saline) was 1 of 4.

`COc1ccc2c(c1)CC(=CO)CC2=O.COc1ccc2c(c1)CC/C(=C/O)C2=O.[Cu]` was tested, and the survivor count [3] was 1 of 6.

With `Cc1ccc(NC(=O)COc2ccc(Cl)cc2Cl)cc1Cl` the survivor count [4] was 6 of 6.

With `CC1=CCCC(C)C12CCC(C(C)(C)O)C2` (stereo not given) the survivor count (dose: 400.0 mg/kg/injection, schedule: Q04DX003 (ip), vehicle: saline sonified) was 0 of 6.

With `Clc1nc(N2CC2)nc(N2CC2)c1Br` the survivor count (dose: 1.0 mg/kg/injection, schedule: Q01DX Z (ip), vehicle: methylcellulose (MC)) was 0 of 6, the survivor count (dose: 3.0 mg/kg/injection, schedule: Q01DX Z (ip), vehicle: methylcellulose (MC)) was 0 of 6 and the survivor count (dose: 6.0 mg/kg/injection, schedule: Q01DX Z (ip), vehicle: methylcellulose (MC)) was 0 of 6. The survivor count (dose: 12.0 mg/kg/injection, schedule: Q01DX Z (ip), vehicle: methylcellulose (MC)) was 0 of 6, the survivor count (dose: 25.0 mg/kg/injection, schedule: Q01DX Z (ip), vehicle: methylcellulose (MC)) was 0 of 6 and the survivor count (dose: 50.0 mg/kg/injection, schedule: Q01DX Z (ip), vehicle: methylcellulose (MC)) was 0 of 6. The survivor count (dose: 100.0 mg/kg/injection, schedule: Q01DX Z (ip), vehicle: methylcellulose (MC)) was 0 of 6 and the survivor count (dose: 200.0 mg/kg/injection, schedule: Q01DX Z (ip), vehicle: methylcellulose (MC)) was 0 of 6.

In the case of `O=C(O)CC1(C(=O)O)CC2(Cl)C(Cl)=C(Cl)C1(Cl)C2(Cl)Cl` (stereo not given), the survivor count (dose: 400.0 mg/kg/injection, schedule: Q04DX003 (ip), vehicle: saline with Tween-80) is reported as 6 of 6.

`Cc1ccc[nH]c1=O` was tested, and the survivor count [5] was 1 of 6.

In the case of `COc1cccc(/C=N/NC(=O)c2ccncc2)c1OC`, the survivor count (dose: 200.0 mg/kg/injection, schedule: Q01DX009 (ip), vehicle: Klucel (hydroxypropylcellulose) (HPC)) is reported as 1 of 6 and the survivor count [6] is reported as 0 of 6.

With `COC(OC)c1cc(=O)[nH]c(NC(=O)C(Cl)Cl)n1` the survivor count [4] was 6 of 6.

With `CCOP(=O)(OCC)OC(=O)N(CC)CC` the survivor count [7] was 1 of 3.

For `CCCSC(=O)N(CC)C(=NCC)c1ccc(NC(=O)c2ccc(C(=O)Nc3ccc(C(=NCC)N(CC)C(=O)SCCC)cc3)cc2)cc1`, the survivor count (dose: 37.5 mg/kg/injection, schedule: Q01DX015 (ip), vehicle: methylcellulose (MC)) was 6 of 6 and the survivor count (dose: 300.0 mg/kg/injection, schedule: Q01DX015 (ip), vehicle: methylcellulose (MC)) was 6 of 6.

`N#CC(C#N)=Cc1ccco1` was tested, and the survivor count (dose: 80.0 mg/kg/injection, schedule: Q01DX001 (ip), vehicle: saline) was 1 of 4, the survivor count [1] was 0 of 4 and the survivor count (dose: 200.0 mg/kg/injection, schedule: Q01DX001 (ip), vehicle: saline) was 0 of 4. For the same compound, the survivor count [2] was 0 of 4.

With `O=C1C=CC(=O)N1c1ccc(F)cc1` the survivor count (dose: 50.0 mg/kg/injection, schedule: Q04DX003 (ip), vehicle: saline with Tween-80) was 1 of 6 and the survivor count (dose: 100.0 mg/kg/injection, schedule: Q04DX003 (ip), vehicle: saline with Tween-80) was 0 of 6.

With `CCOc1nc(N)nc2n[nH]nc12` the survivor count (dose: 350.0 mg/kg/injection, schedule: Q01DX Z (ip), vehicle: carboxymethylcellulose (CMC)) was 0 of 6.

`O=[N+]([O-])c1cccc(C=Nc2ccccc2Cl)c1` was tested, and the survivor count (dose: 200.0 mg/kg/injection, schedule: Q01DX001 (ip), vehicle: Klucel (hydroxypropylcellulose) (HPC)) was 6 of 6.

`S=C(N/N=C/c1ccccn1)NC1CC2C=CC1C2` (stereo not given) was tested, and the survivor count [6] was 3 of 6.

In the case of `CCCCCCCCNC(C)=O`, the survivor count [4] is reported as 0 of 6, the survivor count (dose: 200.0 mg/kg/injection, schedule: Q01DX009 (ip), vehicle: saline with Tween-80) is reported as 0 of 6 and the survivor count [3] is reported as 0 of 6.

For `COc1cc2[nH]c(C)c(CCN3CCN(c4ccccc4)CC3)c2cc1OC`, the survivor count (dose: 50.0 mg/kg/injection, schedule: Q01DX009 (ip), vehicle: Klucel (hydroxypropylcellulose) (HPC)) was 0 of 6, the survivor count (dose: 100.0 mg/kg/injection, schedule: Q04DX003 (ip), vehicle: Klucel (hydroxypropylcellulose) (HPC)) was 0 of 4 and the survivor count (dose: 200.0 mg/kg/injection, schedule: Q04DX003 (ip), vehicle: Klucel (hydroxypropylcellulose) (HPC)) was 0 of 4. For the same compound, the survivor count (dose: 400.0 mg/kg/injection, schedule: Q04DX003 (ip), vehicle: Klucel (hydroxypropylcellulose) (HPC)) was 0 of 4.

In the case of `NC(=O)c1[nH]cnc1N`, the T/C (dose: 31.3 mg/kg/injection, schedule: Q06HX008 (ip), vehicle: steroid suspending solution, evaluated on day 5) is reported as 102 % of control, the T/C (dose: 31.3 mg/kg/injection, schedule: Q06HX008 (ip), vehicle: steroid suspending solution, evaluated on day 6) is reported as 93 % of control and the T/C (dose: 31.3 mg/kg/injection, schedule: Q06HX008 (ip), vehicle: steroid suspending solution, evaluated on day 19) is reported as 102 % of control. For the same compound, the T/C (dose: 31.3 mg/kg/injection, schedule: Q06HX008 (ip), vehicle: steroid suspending solution, evaluated on day 60) was 93 and 101 % of control, the T/C (dose: 62.5 mg/kg/injection, schedule: Q06HX008 (ip), vehicle: steroid suspending solution, evaluated on day 5) was 102 % of control and the T/C (dose: 62.5 mg/kg/injection, schedule: Q06HX008 (ip), vehicle: steroid suspending solution, evaluated on day 6) was 102 % of control. The T/C (dose: 62.5 mg/kg/injection, schedule: Q06HX008 (ip), vehicle: steroid suspending solution, evaluated on day 19) was 102 % of control, the T/C (dose: 62.5 mg/kg/injection, schedule: Q06HX008 (ip), vehicle: steroid suspending solution, evaluated on day 60) was 97 and 102 % of control and the T/C (dose: 125.0 mg/kg/injection, schedule: Q06HX008 (ip), vehicle: steroid suspending solution, evaluated on day 5) was 103 % of control. For the same compound, the T/C (dose: 125.0 mg/kg/injection, schedule: Q06HX008 (ip), vehicle: steroid suspending solution, evaluated on day 6) was 96 % of control, the T/C (dose: 125.0 mg/kg/injection, schedule: Q06HX008 (ip), vehicle: steroid suspending solution, evaluated on day 19) was 103 % of control and the T/C (dose: 125.0 mg/kg/injection, schedule: Q06HX008 (ip), vehicle: steroid suspending solution, evaluated on day 60) was 96 % of control (2×). The T/C (dose: 250.0 mg/kg/injection, schedule: Q06HX008 (ip), vehicle: steroid suspending solution, evaluated on day 5) was 102 % of control, the T/C (dose: 250.0 mg/kg/injection, schedule: Q06HX008 (ip), vehicle: steroid suspending solution, evaluated on day 6) was 171 % of control and the T/C (dose: 250.0 mg/kg/injection, schedule: Q06HX008 (ip), vehicle: steroid suspending solution, evaluated on day 19) was 102 % of control. The T/C (dose: 250.0 mg/kg/injection, schedule: Q06HX008 (ip), vehicle: steroid suspending solution, evaluated on day 60) was 93 and 171 % of control.

In the case of `NC(=O)C1(c2ccccc2)CCN(Cc2ccccc2)CC1`, the survivor count (dose: 200.0 mg/kg/injection, schedule: Q04DX003 (ip), vehicle: saline with Tween-80) is reported as 5 of 6.

For `COC1C(O)C(CO)OC1n1cnc2c(=S)nc(N)[nH]c21` (stereo not given), the T/C (dose: 50.0 mg/kg/injection, schedule: Q01DX001 (ip), vehicle: carboxymethylcellulose (CMC)) was 141 % of control, the T/C (dose: 100.0 mg/kg/injection, schedule: Q01DX001 (ip), vehicle: carboxymethylcellulose (CMC)) was 148 % of control and the T/C (dose: 177.0 mg/kg/injection, schedule: Q01DX001 (ip), vehicle: carboxymethylcellulose (CMC)) was 148 % of control. For the same compound, the T/C (dose: 200.0 mg/kg/injection, schedule: Q01DX001 (ip), vehicle: carboxymethylcellulose (CMC)) was 141 % of control.

With `c1ccc2c(c1)[nH]c1nc3ccncc3nc12` the survivor count [5] was 5 of 6.

For `NC(CSS(=O)(=O)O)=NCc1ccncc1`, the T/C (dose: 100.0 mg/kg/injection, schedule: Q04DX002 (ip), vehicle: saline) was 130 % of control, the survivor count (dose: 200.0 mg/kg/injection, schedule: Q04DX002 (ip), vehicle: saline) was 0 of 3 and 2 of 3 and the survivor count [7] was 0 of 3.

In the case of `OC1CCC2CCCC2C1` (stereo not given), the survivor count [6] is reported as 3 of 6.
